For one molecule, binding results are on record in PMC4432633.

Assay [1] deals with MopJ-GFP (Caulobacter crescentus NA1000). In words: co-IP; GFP-Trap_A beads (ChromoTek) incubated with cleared lysates of C. crescentus grown with xylose; 10 mM Tris-HCl pH 7.5, 150 mM NaCl, 0.5 mM EDTA, lysis with 0.5% NP40; 1 h or overnight at 4 °C; immunoblot with antibodies to DivJ and GFP. (In western blotting, separated proteins are transferred to a membrane and probed.)
Assay [2] concerns the target MopJ-TAP (Caulobacter crescentus NA1000). In words: tandem affinity purification; MopJ-TAP from lysate of WT cells (0.5% n-dodecyl-β-D-maltoside), IgG Sepharose, TEV release, calmodulin beads, EGTA elution; eluates immunoblotted with polyclonal antibodies to DivJ.

No constants are given. Whether binding was seen depends on the method and setting. Binding can be weak; no strength is given. For some assays here: Binding seen in cells or lysates may run through a third protein.

B1: DivJ (enzyme, UniProt Q03228 1-597)
chain: MILPTALKSRLALEFETLPDPFRRPAARAAGLDPAHAWRLGWLAAVCLAAAAALFTADSGGWPVWAALGAGALPALVSLIFTREDERTQSWLLVLWAVGGSLAAVLTGGVGGAMAAWCLAPVAAASTQDQPKRLAEGAALALIGACVAALTQLSGLAPAAPTGPLAFVLGFLALVTTGLGLAAGLLIGRRRQGARDDRYASEIIGLETLLDGLPHLAIAVRGQGQVTAVRGAAPPGVTRADLVNRGLTGAAAPGDRQRLTAAIAQAHREGSASLTFNPALGVERVVALDMHRVAPNQLVGVLRDITVERHREHALDQARIDAEALAAGRARFLANMSHELRTPLNAIMGFSDIMRARMFGPLSDRYAEYAELIHESGGHLLDLINDVLDMSKIEAERFELQRGVFDAREAVQAAMRLLRVQSDTAGVQLRGVLPPGELEVDADRRALKQIVLNLVSNALKFTPRGGQVTVTAHGYDGVLEIVVADTGVGISPEDLERLGRPYEQAGGAEQRARGTGLGLSLVRAFAQLHGGEMVIESRLGAGTTVSVRLPVLLAPMVAATPTPPAAPEAPSAPEPAPTVEEPPPASLGDNVIAFAPR
For the molecule B1, the binding entry in assay [1] and in assay [2] was “binds” each time.
